These results are taken from patent US5093477A (priority 1988, dated 1992).

Data set [1] can be described thus: general procedure: Fmoc solid-phase peptide synthesis; amide anchoring resin; Fmoc-amino acid OObt esters or HOBt esters activated in situ with diisopropylcar. The settings on record: whole synthesis, scale 500 mg resin.
Data set [2] in a line: general procedure: Fmoc solid-phase peptide synthesis; Fmoc-Ile-benzyloxybenzyl alcohol-resin; Fmoc-amino acid OObt esters or HOBt esters activated in situ with diisopropylcar. The conditions noted are these: whole synthesis, scale 5 g resin (0.43 mmol/g).

Some peptides are written in HELM: one residue between dots, names in brackets for other building blocks, links after the first $.

Take “H-Val-Ser-Gln-Asn-Tyr-Opr-Ile-Val-Gln-OH”: in data set [1], the crude mass is reported as 260 mg and the isolated mass came out at 69 mg.
In data set [2], PEPTIDE1{S.F.N.F.P.Q.I}$$$$V2.0 registered a crude mass of 1.13 g and an isolated mass of 323 mg.
In data set [1], PEPTIDE1{V.S.Q.N.Y.P.I.V.Q}$$$$V2.0 showed a crude mass of 236 mg and an isolated mass of 142 mg.
